Earlier results as cited in patent US20130116274A1 (RUTGERS, THE STATE UNIVERSITY OF NEW JERSEY, priority 2011, published 2013).
At least one structure is not confirmed: it was looked up by name or label, or the drawing left a doubt.

Test system: melanoma
Settings: melanoma patients; cited from earlier work

Which response rate does the source give for CN(C)/N=N/c1[nH]cnc1C(N)=O [DTIC, dacarbazine] here?
Its response rate is 20%.
